Binding data for 1 substance are collected here from PMC8306025.

Chains of the proteins cited; added tags and fusions are not shown.
UniProt Q04206: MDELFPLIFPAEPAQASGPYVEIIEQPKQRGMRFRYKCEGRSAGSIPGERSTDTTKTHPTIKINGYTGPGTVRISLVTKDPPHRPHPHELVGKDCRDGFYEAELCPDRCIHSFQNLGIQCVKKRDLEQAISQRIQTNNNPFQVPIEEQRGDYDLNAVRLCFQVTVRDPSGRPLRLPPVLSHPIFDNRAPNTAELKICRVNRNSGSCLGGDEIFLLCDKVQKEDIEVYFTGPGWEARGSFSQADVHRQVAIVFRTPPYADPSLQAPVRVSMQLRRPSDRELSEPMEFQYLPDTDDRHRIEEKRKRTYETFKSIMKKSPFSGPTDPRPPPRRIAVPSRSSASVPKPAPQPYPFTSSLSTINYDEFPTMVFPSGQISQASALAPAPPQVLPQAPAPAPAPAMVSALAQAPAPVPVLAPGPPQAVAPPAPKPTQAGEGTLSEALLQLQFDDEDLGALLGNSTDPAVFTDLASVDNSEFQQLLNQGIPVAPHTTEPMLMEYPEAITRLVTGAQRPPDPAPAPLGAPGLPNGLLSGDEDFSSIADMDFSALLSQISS
UniProt P48436: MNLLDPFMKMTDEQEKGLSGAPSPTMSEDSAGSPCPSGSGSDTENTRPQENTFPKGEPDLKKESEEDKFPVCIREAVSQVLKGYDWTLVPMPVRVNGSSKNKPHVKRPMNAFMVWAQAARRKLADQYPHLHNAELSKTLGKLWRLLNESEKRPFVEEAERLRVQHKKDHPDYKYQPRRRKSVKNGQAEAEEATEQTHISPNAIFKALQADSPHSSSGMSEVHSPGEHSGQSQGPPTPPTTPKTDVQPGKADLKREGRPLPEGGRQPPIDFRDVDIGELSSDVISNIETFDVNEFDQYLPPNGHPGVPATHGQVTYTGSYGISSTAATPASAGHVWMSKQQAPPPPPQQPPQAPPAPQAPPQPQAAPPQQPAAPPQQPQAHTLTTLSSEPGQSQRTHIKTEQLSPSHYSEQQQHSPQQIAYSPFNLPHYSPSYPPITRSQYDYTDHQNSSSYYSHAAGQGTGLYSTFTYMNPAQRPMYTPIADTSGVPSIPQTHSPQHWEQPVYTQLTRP

Assay [1] concerns the target p65-NF-kB (human (endogenous in primary human chondrocytes)) (UniProt Q04206). Nature of the assay: co-IP; cell extracts of primary human chondrocytes from untreated control cultures (no curcumin, no BMS-345541); IP with antibodies to p65-NF-kB, immunoblot with anti-Sox9.
For assay [2] the target is unchanged. In words: co-IP; cell extracts of primary human chondrocytes from alginate cultures (basal control or OA-EN co-culture with fibroblasts and T-lymphocytes) treated with curcumin or BMS-345541; IP with antibodies to p65-NF-kB, immunoblot with anti-Sox9; primary antibodies 4 °C 2 h, then S. aureus (SAC) 4 °C 1 h.

Results are given in words; binding and its absence hold for the method and conditions named. Binding seen in cells or lysates may run through a third protein. Some results given as binding are weak or reduced against the parent protein; the word gives no strength.

For the substance “Sox9 (SRY-Box Transcription Factor 9) (from UniProt P48436 1-509)”, the binding entry is on record as “binds weakly” in assay [1] and “binds” in assay [2].
